One experiment has as its target Flag-HOIP (human) (UniProt Q96EP0). The experiment in a line: co-IP; asynchronous 293T cells transfected with Flag- and HA-tagged constructs; anti-Flag and/or anti-HA IP; lysis in EBC buffer (50 mM Tris pH 7.5, 120 mM NaCl, 0.5% NP-40), four washes with NETN buffer; immunoblot. Background: In western blotting, separated proteins are transferred to a membrane and probed.

Amino acid sequences for entries named in this document (tags omitted).
UniProt Q96EP0: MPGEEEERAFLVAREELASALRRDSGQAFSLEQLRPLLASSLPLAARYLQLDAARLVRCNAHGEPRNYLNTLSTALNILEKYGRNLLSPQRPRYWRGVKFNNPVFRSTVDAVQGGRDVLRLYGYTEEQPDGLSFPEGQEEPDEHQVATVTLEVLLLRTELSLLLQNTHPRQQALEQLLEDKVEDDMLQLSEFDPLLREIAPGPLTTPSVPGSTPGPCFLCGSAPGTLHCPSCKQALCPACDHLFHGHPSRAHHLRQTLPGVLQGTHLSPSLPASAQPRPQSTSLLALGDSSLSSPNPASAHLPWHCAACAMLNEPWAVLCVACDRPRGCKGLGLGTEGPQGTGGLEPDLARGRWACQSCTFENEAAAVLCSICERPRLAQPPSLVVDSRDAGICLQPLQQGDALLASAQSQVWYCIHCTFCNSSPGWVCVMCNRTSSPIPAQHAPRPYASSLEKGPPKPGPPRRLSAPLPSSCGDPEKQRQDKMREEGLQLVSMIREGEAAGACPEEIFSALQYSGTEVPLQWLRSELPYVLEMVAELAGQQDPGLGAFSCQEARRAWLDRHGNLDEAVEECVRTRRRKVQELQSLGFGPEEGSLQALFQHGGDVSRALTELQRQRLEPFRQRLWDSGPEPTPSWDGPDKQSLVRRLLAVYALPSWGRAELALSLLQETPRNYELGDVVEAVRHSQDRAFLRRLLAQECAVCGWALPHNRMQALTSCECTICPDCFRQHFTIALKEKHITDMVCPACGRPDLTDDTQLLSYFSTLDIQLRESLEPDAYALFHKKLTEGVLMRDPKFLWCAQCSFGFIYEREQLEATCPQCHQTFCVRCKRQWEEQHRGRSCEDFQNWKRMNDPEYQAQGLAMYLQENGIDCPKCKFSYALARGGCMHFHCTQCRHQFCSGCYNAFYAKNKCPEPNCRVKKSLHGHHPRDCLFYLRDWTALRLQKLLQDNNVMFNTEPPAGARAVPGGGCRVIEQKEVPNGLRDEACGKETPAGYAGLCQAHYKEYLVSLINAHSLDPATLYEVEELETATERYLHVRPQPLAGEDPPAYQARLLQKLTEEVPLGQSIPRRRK
UniProt Q13257: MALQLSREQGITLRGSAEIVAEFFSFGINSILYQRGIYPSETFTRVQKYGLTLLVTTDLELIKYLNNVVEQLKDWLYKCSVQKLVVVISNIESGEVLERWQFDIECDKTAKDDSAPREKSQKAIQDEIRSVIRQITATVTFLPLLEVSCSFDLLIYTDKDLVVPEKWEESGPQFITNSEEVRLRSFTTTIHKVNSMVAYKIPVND
UniProt Q12834: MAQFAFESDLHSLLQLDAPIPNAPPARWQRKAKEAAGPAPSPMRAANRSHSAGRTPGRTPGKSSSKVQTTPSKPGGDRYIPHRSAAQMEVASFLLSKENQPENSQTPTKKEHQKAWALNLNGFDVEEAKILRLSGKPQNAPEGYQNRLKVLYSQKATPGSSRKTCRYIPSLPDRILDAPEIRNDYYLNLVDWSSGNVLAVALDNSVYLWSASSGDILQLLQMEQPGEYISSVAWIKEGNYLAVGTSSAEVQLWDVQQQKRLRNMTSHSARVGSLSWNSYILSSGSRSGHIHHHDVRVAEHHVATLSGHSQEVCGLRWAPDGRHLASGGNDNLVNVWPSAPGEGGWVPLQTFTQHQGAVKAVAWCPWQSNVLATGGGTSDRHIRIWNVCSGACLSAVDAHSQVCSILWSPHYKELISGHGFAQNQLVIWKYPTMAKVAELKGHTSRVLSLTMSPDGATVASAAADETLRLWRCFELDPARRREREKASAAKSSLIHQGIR
UniProt O60566: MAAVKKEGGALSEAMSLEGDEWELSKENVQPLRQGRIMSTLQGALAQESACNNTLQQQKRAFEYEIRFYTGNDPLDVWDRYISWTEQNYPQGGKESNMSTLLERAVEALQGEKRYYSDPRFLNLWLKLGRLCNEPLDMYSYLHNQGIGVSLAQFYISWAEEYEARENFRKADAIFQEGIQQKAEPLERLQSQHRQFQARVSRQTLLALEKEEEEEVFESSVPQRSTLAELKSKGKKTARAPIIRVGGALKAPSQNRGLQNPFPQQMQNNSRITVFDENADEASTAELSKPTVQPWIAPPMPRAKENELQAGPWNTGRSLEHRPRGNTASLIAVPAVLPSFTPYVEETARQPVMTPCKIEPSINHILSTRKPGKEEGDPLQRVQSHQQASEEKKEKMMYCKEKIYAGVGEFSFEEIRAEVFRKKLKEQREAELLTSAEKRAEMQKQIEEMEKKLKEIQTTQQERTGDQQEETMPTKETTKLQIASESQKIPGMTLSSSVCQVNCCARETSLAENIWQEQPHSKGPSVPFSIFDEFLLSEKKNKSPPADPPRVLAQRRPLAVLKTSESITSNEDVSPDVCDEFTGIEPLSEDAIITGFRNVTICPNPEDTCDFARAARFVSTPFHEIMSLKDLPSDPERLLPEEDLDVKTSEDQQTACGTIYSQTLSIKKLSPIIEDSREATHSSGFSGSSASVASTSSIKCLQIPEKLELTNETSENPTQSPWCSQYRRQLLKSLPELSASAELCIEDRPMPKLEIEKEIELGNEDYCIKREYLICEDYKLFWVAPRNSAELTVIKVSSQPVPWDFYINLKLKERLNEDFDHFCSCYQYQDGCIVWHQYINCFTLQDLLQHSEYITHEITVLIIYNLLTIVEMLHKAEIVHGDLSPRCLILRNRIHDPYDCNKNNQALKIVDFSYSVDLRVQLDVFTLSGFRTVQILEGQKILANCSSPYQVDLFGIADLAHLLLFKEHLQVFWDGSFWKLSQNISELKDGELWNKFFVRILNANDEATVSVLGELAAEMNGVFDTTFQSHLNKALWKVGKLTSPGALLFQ
UniProt P53350: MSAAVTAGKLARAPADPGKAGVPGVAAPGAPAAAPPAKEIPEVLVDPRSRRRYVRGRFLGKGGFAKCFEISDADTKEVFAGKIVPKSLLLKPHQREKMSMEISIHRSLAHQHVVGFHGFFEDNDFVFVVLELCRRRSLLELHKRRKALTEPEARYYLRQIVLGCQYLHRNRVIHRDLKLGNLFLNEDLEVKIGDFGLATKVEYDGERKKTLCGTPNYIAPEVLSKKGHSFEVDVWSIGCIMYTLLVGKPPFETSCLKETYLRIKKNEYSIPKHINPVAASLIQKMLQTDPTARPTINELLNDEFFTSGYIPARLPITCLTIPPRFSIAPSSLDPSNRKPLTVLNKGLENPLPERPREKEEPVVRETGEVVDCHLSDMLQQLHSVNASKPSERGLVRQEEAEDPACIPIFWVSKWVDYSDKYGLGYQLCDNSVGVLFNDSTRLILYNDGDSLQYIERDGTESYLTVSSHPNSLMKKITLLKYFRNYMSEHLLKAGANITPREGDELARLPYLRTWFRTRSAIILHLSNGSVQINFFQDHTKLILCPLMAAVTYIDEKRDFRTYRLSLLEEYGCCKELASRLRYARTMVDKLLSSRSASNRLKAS

A further experiment addresses T1, GST-p31^comet (human) (UniProt Q15013).
T1 sequence: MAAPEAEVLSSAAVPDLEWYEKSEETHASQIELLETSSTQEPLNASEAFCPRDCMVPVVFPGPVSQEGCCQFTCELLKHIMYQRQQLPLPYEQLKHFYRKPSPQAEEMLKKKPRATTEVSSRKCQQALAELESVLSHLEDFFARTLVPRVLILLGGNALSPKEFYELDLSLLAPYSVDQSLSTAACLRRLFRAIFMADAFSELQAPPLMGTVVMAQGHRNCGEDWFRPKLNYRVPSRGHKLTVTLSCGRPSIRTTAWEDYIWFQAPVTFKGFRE
Nature of the experiment: pull-down; agarose-bound GST-p31 incubated with Flag-HOIP-expressing 293T lysates (the legend says immunopurified Flag-HOIP), 4 °C, 3-4 h, washed with NETN buffer; immunoblot; only the target purified.

The target of experiment [1] is T2, HA-p31 in HeLa/HA-p31 cells (human) (UniProt Q15013).
T2 sequence: T1 sequence
Nature of the experiment: co-IP; nocodazole arrested (300 nM, 16 h) mitotic HeLa/HA-p31 cells, with or without 50 ng/ml TNFα for 10 min; anti-HA IP; immunoblot.

Results are given in words; binding and its absence hold for the method and conditions named. Binding seen in cells or lysates may run through a third protein. Some results given as binding are weak or reduced against the parent protein; the word gives no strength. For some assays here: Tags and fused reporters may be left off the sequences shown.

For HA-MAD2 (from UniProt Q13257 1-205), the binding entry with Flag-HOIP (human) is recorded as “no binding”. On the same count and under the same terms, for HA-Cdc20 (from UniProt Q12834 1-499) the value was “no binding”; for HA-BUBR1 (from UniProt O60566 1-1050), “no binding”. Turning to “Flag-HOIP (from UniProt Q96EP0 1-1072) (enzyme)”, the binding entry with GST-p31^comet (human) is reported as “binds”.

Regarding “PLK1 in HeLa/HA-p31 cells (from UniProt P53350 1-603) (enzyme)”, the binding result in experiment [1] was “binds”.

The record behind these values is PMC12135451.
